The results in this text go back to publication PMC7660922.

The target in the experiment is GFP-APC3 (Drosophila). Nature of the experiment: affinity purification with mass spectrometry; GFP affinity purification (GFP-trap nanobeads) from lysates of 0-2 h Drosophila embryos (for GFP-APC3 also from CycB3^+/+ and CycB3^2/+ mothers); LC-MS.

Results are given in words; binding and its absence hold for the method and conditions named. In cells and extracts the contact can be indirect. Here binding means that the protein was enriched with, or labelled near, the bait; the list need not be complete.

B1: Cortex (protein, UniProt Q960N3 1-483)
chain: MFVEMSVCDSPNKNSKLDKKSLTPFKKVRRKNWKQEAAYKSDTSKGQEVSYVGERFIPNRFERENIEFNLKYIGKRKERDILETGVTLTASYWRQSGFISNINRTFGIGERRLFQFSSQQGTRSRVVDNDSADSDWPCNPRARPYAIQNATHEMPGICSPVDYNMMDWSSGGMVAMSSGQDVMLWRNLDESTMVFSVESPTSLKYSPDGKHLAIGCMDRNYPVLDLWEVRSPTEFLVSYRKLFFKSMGYISCIEWSHDGKEVICGTQCGVIIVLAMPTLNTLMQLREHRHTVKKMKFAPTHKYFASSDTDGKIFIFDAVLKVRLLKLDGRSIVFDWHPWTGEDLAVAERSPASIFIFNIPRRQFVASYRRRDDRIVIKTLTYSKITGELLVNVIRRDDADLAVCEILVLASLNRVVDLMSHQDRGTLFLMWNPDGTKIATGGLDDTFSLWNFFPTYKREAILRKQEQKAKDKCSSLSLYKGIR
For B1, the binding result is on record as “binds”.

B2: Fizzy/Cdc20 (protein, UniProt Q24044 1-526)
chain: MSQFNFVSDLQNALIMDGETRGPAPRWKKKLEASLNGSVNTTRSVLSVSYNTSFSGVQAPTKTPGKSSEGKTKKSNTTPSKTPGGGDRFIPNRAATNFELAHFLVNKDSGDKSDEENDKATSSNSNESNVQASAHKGDRQKLISEVAQVGDSKGGRILCYQNKAPAAPETHNNPLKVVYSIKTPISTKSGSRYIPTTSERILDAPDFINDYYLNLMDWSADNIVAVALGSCVYLWNAQTGNIEQLTEFEEGDYAGSLSWIQEGQILAIGNSTGAVELWDCSKVKRLRVMDGHSARVGSLAWNSFLVSSGSRDGTIVHHDVRAREHKLSTLSGHTQEVCGLKWSTDFKYLASGGNDNLVNVWSAASGGVGTATDPLHKFNDHQAAVRALAWCPWQPSTLASGGGTADRCIKFWNVNNGTLMKSVDSKSQVCSLLFSRHYKELISAHGFANNQLTIWKYPTMVKQADLTGHTSRVLQMAMSPDGSTVISAGADETLRLWNCFAPDPLASKKAVSTSKGKQSVFRQSIR
Take B2: the binding entry was “binds”.
